Screen size: about 310,000 compounds; about 17,000 (5.5%) were called active. Inconclusive means that the source gave no clear call. Such entries were picked first, then a sample of the others. Calls follow the shape of the dose curve; as a rule, active = well fitted inhibition curve with a large enough effect; inconclusive = small, poorly fitted or top-dose-only effect, or effect the other way; inactive = no such curve, though single readings can be large or run the other way. Where the call is inconclusive, the potency comes from a doubtful curve fit.
Biological target: Nuclear receptor ROR-gamma (Mus musculus) (UniProt P51450)
Assay: qHTS for inhibitors of ROR gamma transcriptional activity; also: nearly all actives have a fitted effect of over 60% in size
Settings: Drosophila S2 Gal4-RORgamma UAS-luciferase reporter, 20 h; series mostly up to 53.6 µM
Method in brief: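 Drosophila S2 cells stably expressing Gal4-DBD/mouse RORγ fusion under metallothionein promoter plus UAS-luciferase; compound 1 h, then 700 uM CuSO4 induction for 20 h at ambient temperature; inhibition read as reduced luminescence.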
Potency is read from the fitted curve at half-maximal effect.

Amino acid sequences for entries named in this document (tags omitted). A change or cut given only in a name is not applied to a line headed by its entry.
UniProt P51450: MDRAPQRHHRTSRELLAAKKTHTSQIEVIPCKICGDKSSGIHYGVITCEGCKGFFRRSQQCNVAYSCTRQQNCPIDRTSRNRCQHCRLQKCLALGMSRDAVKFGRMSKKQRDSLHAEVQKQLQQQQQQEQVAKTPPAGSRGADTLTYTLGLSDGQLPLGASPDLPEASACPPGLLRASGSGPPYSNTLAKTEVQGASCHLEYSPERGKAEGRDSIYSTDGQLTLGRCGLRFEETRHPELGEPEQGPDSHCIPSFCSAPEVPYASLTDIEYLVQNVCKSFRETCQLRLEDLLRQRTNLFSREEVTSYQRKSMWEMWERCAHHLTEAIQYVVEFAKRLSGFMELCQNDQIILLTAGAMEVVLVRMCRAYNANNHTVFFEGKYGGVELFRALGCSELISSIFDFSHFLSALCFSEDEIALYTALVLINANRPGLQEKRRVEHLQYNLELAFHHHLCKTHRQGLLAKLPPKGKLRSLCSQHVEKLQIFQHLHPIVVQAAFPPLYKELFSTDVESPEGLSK

Question: How did the Potency turn out when `OC(CNCc1ccccc1F)(c1ccc(F)cc1)c1ccc(F)cc1` was run?
Answer: active: 7.94 µM

Question: `COc1ccc(Oc2cnn(-c3ccccc3)c(=O)c2Br)cc1` was tested. Which Potency did it give?
Answer: inconclusive: 35.5 µM [inhibitor, single point]

Question: `O=C(Cn1c(NCCCO)nc2ccccc21)c1ccco1` was tested. Which Potency did it give?
Answer: inconclusive: 0.0045 µM [inhibitor, full curve, poor fit]

Question: With `Cc1cccc(-c2nc3ccccc3c(=O)n2NC(=O)/C=C/c2ccc([N+](=O)[O-])cc2)c1` as the compound, how does the Potency read?
Answer: inconclusive: 35.5 µM [activator, single point]

Question: For `O=C(NS(=O)(=O)c1ccc2c(c1)OCCO2)c1ccccc1`, which Potency is on record?
Answer: inactive

Question: With `CCc1nnc(NC(=O)c2ccc(S(=O)(=O)NC3CCCCC3)cc2)s1` as the compound, how does the Potency read?
Answer: inactive

Question: Which Potency does the source give for `O=C(Nc1ccc([N+](=O)[O-])cn1)c1cccnc1` here?
Answer: inconclusive: 0.282 µM [activator, single point]

Question: How did the Potency turn out when `CCCCNc1nc2c(c(=O)n(C)c(=O)n2C)n1Cc1cccc(OC)c1` was run?
Answer: inconclusive: 1.78 µM [activator, full curve]

Question: For `COc1ccc(OCc2nc3ccccc3n2C(C)C)cc1`, which Potency is on record?
Answer: inconclusive: 17.8 µM [inhibitor, single point]

Question: Which Potency does the source give for `Cc1ccccc1Nc1nc(N)nc(CSc2nc3ccccc3s2)n1` here?
Answer: inconclusive: 28.2 µM [inhibitor, single point]

Question: With `COCCn1c(SCCCc2ccccc2)nc2c1c(=O)[nH]c(=O)n2C` as the compound, how does the Potency read?
Answer: inconclusive: 3.55 µM [inhibitor, single point]

Question: With `COc1cc(C(=O)ON=C2C3CC4CC(C3)CC2C4)cc(OC)c1OC` as the compound, how does the Potency read?
Answer: inconclusive: 20 µM [inhibitor, single point]

Question: `Cc1cc(Br)c(Cl)cc1NC(=O)CN1C(=O)C2C3CC(c4ccccc4)C(C3)C2C1=O` (configuration not stated) was tested. Which Potency did it give?
Answer: inconclusive: 11.2 µM [activator, partial curve]

Question: With `CC(C)(C)c1ccc2c(c1)OC(C(=O)N/N=C\c1ccc(-c3cccc(C(=O)O)c3)o1)CO2` (configuration not stated) as the compound, how does the Potency read?
Answer: inactive

Question: How did the Potency turn out when `O=C(CCc1n[nH]c(=O)[nH]c1=O)N/N=C/c1ccco1` was run?
Answer: inactive

Question: With `Cc1cc(Nc2nnnn2-c2ccccc2)n(-c2ccc(Cl)cc2)n1` as the compound, how does the Potency read?
Answer: inconclusive: 3.16 µM [inhibitor, single point]

Question: With `Cc1c(CCC(=O)O)c(=O)oc2cc3occ(-c4ccccc4)c3cc12` as the compound, how does the Potency read?
Answer: inconclusive: 3.55 µM [inhibitor, partial curve]

Question: `O=C(Nc1ccccc1)c1nn(-c2cccc(C(F)(F)F)c2)ccc1=O` was tested. Which Potency did it give?
Answer: inconclusive: 14.1 µM [activator, single point]

Question: Which Potency does the source give for `Oc1ccc(N=Nc2ccccc2)o1` here?
Answer: inconclusive: 35.5 µM [inhibitor, single point]

Question: How did the Potency turn out when `CN(CCc1ccccn1)C(=S)NC(=O)c1ccco1` was run?
Answer: active: 14.1 µM

Question: `COc1ccccc1N1CCN(C(=S)Nc2ccc(F)cc2)CC1` was tested. Which Potency did it give?
Answer: active: 11.2 µM

Question: How did the Potency turn out when `CNC(=O)/C(C#N)=C/c1ccc(OCCOc2ccccc2)cc1` was run?
Answer: inconclusive: 14.1 µM [activator, partial curve]

Question: How did the Potency turn out when `COc1ccc(NC(=O)C/C(C)=N/NC(=O)c2ccncc2)c([N+](=O)[O-])c1` was run?
Answer: active: 12.6 µM

Question: Which Potency does the source give for `CCn1ccnc1CN(C)Cc1nc(-c2ccc3c(c2)OCO3)no1` here?
Answer: inconclusive: 10 µM [inhibitor, partial curve]

Question: For `CN(c1ccccc1)S(=O)(=O)c1ccc(C(=O)Nc2nnc(C3CC3)o2)cc1`, which Potency is on record?
Answer: active: 0.316 µM

Question: `Cn1c(=N)n(CC(=O)C(C)(C)C)c2ccccc21` was tested. Which Potency did it give?
Answer: active: 11.2 µM

Question: How did the Potency turn out when `O=C(NC(=S)N1CCCC1)c1cccc([N+](=O)[O-])c1` was run?
Answer: active: 2 µM

Question: For `Cc1nc2ccc(NC(=O)c3cnc(Cl)c(Cl)c3)cc2s1`, which Potency is on record?
Answer: inconclusive: 2.82 µM [activator, full curve, poor fit]

Question: With `COc1ccc(CNC(=O)C(C)N2CCN(c3ccc(C(C)=O)cc3)CC2)cc1` (configuration not stated) as the compound, how does the Potency read?
Answer: inconclusive: 11.2 µM [activator, partial curve, poor fit]

Question: For `CC(=O)NCCc1ccc(O)cc1`, which Potency is on record?
Answer: inactive

Question: With `COc1ccc(Cl)cc1NC(=O)NN1CCN(C)CC1` as the compound, how does the Potency read?
Answer: inconclusive: 17.8 µM [inhibitor, partial curve, poor fit]

Question: How did the Potency turn out when `O=C(c1ccc(NS(=O)(=O)c2ccc(F)cc2)cc1)N1CCN(c2ccccc2O)CC1` was run?
Answer: inconclusive: 20 µM [activator, partial curve, poor fit]

Question: With `C/C(=C\c1ccccc1F)C(=O)c1c(C)cc(C)[nH]c1=O` as the compound, how does the Potency read?
Answer: inactive

Question: For `COc1ccccc1CNC(=O)c1ccc(OC(F)F)c(OC)c1`, which Potency is on record?
Answer: inconclusive: 35.5 µM [activator, single point]

Question: `C=CCSc1cc(C)nc2c(-c3ccccc3)c(C)nn12` was tested. Which Potency did it give?
Answer: inconclusive: 4.47 µM [inhibitor, full curve]

Question: How did the Potency turn out when `CCOC(=O)[C@@H]1[C@H]2COc3ccccc3[C@@H]2N2C(=O)N(c3cccc(Cl)c3)C(=O)[C@@]12C` was run?
Answer: inconclusive: 17.8 µM [inhibitor, single point]

Question: For `O=C(Nc1ccnn1C1CCN(Cc2ccccc2F)CC1)C1CCCC1`, which Potency is on record?
Answer: inactive

Question: With `Cc1cccc(NC(=O)c2ccccc2O)c1C` as the compound, how does the Potency read?
Answer: inconclusive: 35.5 µM [inhibitor, single point]

Question: `O=C(O)CC(c1cccc(O)c1)N1Cc2ccccc2C1=O` (configuration not stated) was tested. Which Potency did it give?
Answer: inactive

Question: With `CCOC(=O)c1cc(-c2ccccc2)nc2nc(N3CCCCC3)sc12` as the compound, how does the Potency read?
Answer: inactive

Question: How did the Potency turn out when `O=C(CCCN1C(=O)/C(=C/c2ccccc2Cl)SC1=S)NNC(=O)c1ccc(Cl)cc1Cl` was run?
Answer: active: 0.224 µM

Question: Which Potency does the source give for `Fc1ccc(NC(=S)Nc2cccnc2)c(Cl)c1` here?
Answer: inactive

Question: How did the Potency turn out when `COCCCn1c(-c2cccc(Cl)c2)nc2c1c(=O)[nH]c(=O)n2Cc1ccccc1` was run?
Answer: inactive

Question: With `Cc1cccc(-n2ccnc2CN2CCN(C(C)C)C(CCO)C2)c1` (configuration not stated) as the compound, how does the Potency read?
Answer: inconclusive: 10 µM [inhibitor, partial curve, poor fit]

Question: Which Potency does the source give for `S=c1[nH]nc(Cc2ccc(Cl)cc2)n1-c1ccc2c(c1)OCCO2` here?
Answer: active: 2.82 µM

Question: `CN1CCN(c2ncc3nc(-c4cn(C)c5ccccc45)c(=O)n(C)c3n2)CC1` was tested. Which Potency did it give?
Answer: inconclusive: 35.5 µM [inhibitor, single point]

Question: Which Potency does the source give for `CCc1cccc(NC(=S)N2CCC(c3ccccc3)C2)c1` (configuration not stated) here?
Answer: active: 7.08 µM
